Measured values from US8981052B2, “JNK inhibitor molecules” (Xigen Inflammation Ltd., priority 2010, dated 2015).
“Also recorded” adds a separate entry of the source. Not every detail of the peptide structures is certain; ends, links or a residue may be inferred. Where a SMILES comes first, the peptide text is derived from it. [ ]: non-standard residue; d: D form.

Key:
Type in all cases: cell-based
[1] = tested on: rat whole blood; assay: PMA+ionomycin-induced IL-2 release in rat whole blood
[2] = tested on: human whole blood; assay: LPS-induced IL-6 release in human whole blood; details: LPS 0.02 ng/mL 4 hours, inhibitor 1, 3 and 10 μM
[3] = tested on: primary rat lymph-nodes purified T cells; assay: CD3/CD28-induced IL-2 release in primary rat lymph-nodes purified T cells; details: inhibitor added 1 h before CD3/CD28 (2 μg/mL), supernatant after 24 h
Experimental: Control rat were sacrificed and lymph-nodes were harvested. T cells further were purified (using magnetic negative selection) and plated into 96-well plates at 200,000 cells/well. Cells were treated with anti-rat CD3 and anti-rat CD28 antibodies (2 μg/mL). JNK inhibitor with SEQ ID NO: 172 was added to the cultures 1 h before CD3/CD28 treatment and IL-2 release was assessed in supernatant 24 h after treatment.
Control animal were sacrificed, lymph nodes (LN) were harvested and kept in complete RPMI medium. LN were smashed with complete RPMI on 70 μm filter using a 5 ml piston. A few drops of media were added to keep strainer wet. Cells were centrifuged for 7 min at 450 g and 4° c. Pellet was resuspended in 5 ml fresh medium. Cells were passed again through cell strainer. An aliquot of cells was counted, while cells were centrifuged again 10 min at 1400 rpm and 4° c. Cells were resupended in MACS buffer (80 μl of MACS buffer per 10^7 cells). 10 μl of anti-rat MHC microbeads were added per 10 million cells, cells were incubated for 15 min at 4°-8° C. Cells were washed with 15 ml MACS buffer and centrifuge for 7 min at 700 g and 4° C. […] Resuspended cells were counted and plated at density of 200000 cells/well in 100 μl of complete medium. […] Cytokines were then measured using standard Elisa kits. Results are expressed as pg/ml of supernatant of the measured cytokine. […]

[4] = tested on: human PMA differentiated THP1 cells; assay: LPS-induced cytokine and chemokine release in PMA differentiated THP1 macrophages (ELISA)
[5] = tested on: human whole blood; assay: PHA-L-induced TNF-α and IL-2 release in human whole blood, 3 days; details: PHA-L 5 μg/mL 3 days, inhibitor 1, 3 and 10 μM
[6] = tested on: human whole blood; assay: PMA+ionomycin-induced cytokine release (IL-2, IFN-γ, TNF-α) in human whole blood; details: 4 hours, inhibitor 1, 3 and 10 μM
[7] = tested on: Primary Rat Whole Blood Cells; assay: LPS-induced TNFα release in primary rat whole blood cells; details: LPS 3 ng/ml, 1, 3, 10 μM inhibitor
[8] = tested on: human whole blood; assay: CD3/CD28-induced TNF-α release in human whole blood, 3 days; details: CD3+/−CD28 antibodies 2 μg/mL 3 days, inhibitor 1, 3 and 10 μM
[9] = tested on: primary human T-cells; assay: IL2 secretion by primary human T-cells in response to PMA/Ionomycin or CD3/CD28 stimulation

CC(C)C[C@H](NC(=O)[C@H](CC(N)=O)NC(=O)[C@H](CC(C)C)NC(=O)[C@@H](NC(=O)[C@@H](C)NC(=O)[C@@H]1CCCN1C(=O)[C@H](CCCNC(=N)N)NC(=O)[C@@H](CCCCN)NC(=O)[C@@H]1CCCN1C(=O)[C@H](CCCNC(=N)N)NC(=O)[C@@H](CCCNC(=N)N)NC(=O)[C@H](CCCNC(=N)N)NC(=O)[C@H](CCCNC(=N)N)NC(=O)[C@H](CCC(N)=O)NC(=O)[C@@H](CCCNC(=N)N)NC(=O)[C@H](CCCNC(=N)N)NC(=O)[C@H](CCCCN)NC(=O)[C@H](CCCCN)NC(=O)[C@H](N)CCCNC(=N)N)[C@@H](C)O)C(=O)N[C@H](Cc1ccccc1)C(N)=O [SEQ ID NO: 172, rKKRrQRRrRPkRPaTLNLf] (H-[dR]KKR[dR]QRR[dR]RP[dK]RP[dA]TLNL[dF]-NH2; N-terminus assumed)
IL-2 release ([1]; PMA+ionomycin 4 h, inhibitor 1, 3 and 10 μM): Dose dependent inhibition
PMA-iono-induced IL-2 release ([1]; inhibitor at 10 μM, activators 25/500, 50/750 and 50/1000 ng/mL): did efficiently reduce
LPS-induced IL-6 release [2]: reduce the LPS-induced IL-6 release in a dose-dependent manner
CD3/CD28-induced IL-2 release [3]: Dose-dependent inhibition
LPS-induced TNFα release ([4]; PMA differentiated macrophages (FIG. 11)): higher potency than D-TAT-IB1 (SEQ ID NO: 197) and L-TAT-IB1 (SEQ ID NO: 196)
LPS-induced IL-6 release ([4]; PMA differentiated macrophages, LPS added for 6 h (FIG. 10)): higher potency than D-TAT-IB1 (SEQ ID NO: 197) and L-TAT-IB1 (SEQ ID NO: 196)
TNF release ([4]; THP1pma, 6 h, 3 ng/ml LPS (FIG. 7A)): blocks
MCP1 release ([4]; THP1 pma, 6 h, 3 ng/ml LPS (FIG. 7D)): blocks
TNFα release ([4]; THP1 pma, 6 h, 10 ng/ml LPS (FIG. 7B, FIG. 9)): blocks; also recorded: higher potency than D-TAT-IB1 (SEQ ID NO: 197), dTAT (SEQ ID NO: 45) and SP 600125
IL 6 release ([4]; THP1pma, 6 h, 10 ng/ml LPS (FIG. 7C, FIG. 8)): blocks; also recorded: higher potency than D-TAT-IB1 (SEQ ID NO: 197), dTAT (SEQ ID NO: 45) and SP 600125
PHA-L-induced IL-2 release [5]: reduce the PHA-L-induced IL-2 release in a dose-dependent manner
PHA-L-induced TNF-α release [5]: reduce the PHA-L-induced TNF-α release in a dose-dependent manner
PMA+ionomycin-induced IFN-γ release [6]: reduce the PMA+ionomycin-induced IFN-γ release in a dose-dependent manner
PMA+ionomycin-induced IL-2 release [6]: reduce the PMA+ionomycin-induced IL-2 release in a dose-dependent manner
PMA+ionomycin-induced TNF-α release [6]: reduce the PMA+ionomycin-induced TNF-α release in a dose-dependent manner
LPS-induced TNFα release [7]: blocks
CD3/CD28-induced TNF-α release [8]: reduce the CD3/CD28-induced TNF-α release in a dose-dependent manner
IL2 secretion ([9]; CD3/CD28 stimulation): blocks
IL2 secretion ([9]; PMA/Ionomycin): blocks
